Results deposited as PubChem BioAssay AID504791 (Drosophila RNAi Screening Center, 2011).
Screen: 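Genes whose knock-down strengthens or weakens small-RNA reporter silencing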 (primary screen). Cell system: Drosophila S2-derived reporter cells. Reagent: long dsRNA against Drosophila genes, about 150-250 ng dsRNA per well (siRNA assay); about 80-120 ng (miRNA assay). Time to read-out: about 5 days (siRNA assay); about 4 days (miRNA assay). Challenge: copper sulfate induction of reporters: 25 µM (siRNA assay); 200 mM stated (miRNA assay), 1-2 days before reading. Detection: 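Dual luciferase assay: Renilla to firefly signal ratio in each well, scaled to the mean ratio of its plate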. Hit rule: 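a well was a first-pass pick when its plate-scaled ratio rose above 1.5 (siRNA assay) or 1.6 (miRNA assay), or dropped below 0.6; a gene counted only if two separate dsRNAs agreed on retest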.
In all, the deposit lists about 23,000 reagents; shown is a random part of those with a known target gene and a result. Of all reagents, 199 (0.86%) are marked active. 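Plate-scaled ratios behind the calls are not deposited; printed light signals are raw; many rows marked increased or decreased are still called inactive.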 The numbers tell different reagents against one gene apart. Names joined by + are all predicted targets of the reagent. The record does not give: the direction of the score.

Gene | dsRNA no. | stable siRNA reporter change | miRNA reporter change | stable assay Renilla, run 1 (luminescence) | stable assay firefly, run 1 (luminescence) | Call
CG33468 (GeneID 2768833) | 1 | – | – | 4047 | 3.13e5 | inactive
holn1 (GeneID 34432) | 1 | – | – | 13834 | 9.75e5 | inactive
holn1 (GeneID 34432) | 2 | – | – | 4790 | 4.34e5 | inactive
CG34241 (GeneID 5740575) | 1 | – | – | 5720 | 2.89e5 | inactive
Spn43Aa (GeneID 45041) | 1 | – | – | 45948 | 2.19e6 | inactive
Vps53 (GeneID 33640) | 1 | – | – | 14670 | 6.78e5 | inactive
l(3)04053 (GeneID 46158) | 1 | – | – | 4820 | 3.13e5 | inactive
CR31541 (retired record) (GeneID 3772590) | 1 | – | – | 8155 | 6.38e5 | inactive
CG17826 (GeneID 39354) | 1 | – | – | 4975 | 3.03e5 | inactive
CG14518 (GeneID 43421) | 1 | – | – | 5747 | 3.19e5 | inactive
CG12609 (GeneID 32862) | 1 | – | – | 6854 | 4.74e5 | inactive
apn (GeneID 41631) | 1 | – | – | 7066 | 5.00e5 | inactive
Cpr49Ac (GeneID 36348) | 1 | – | – | 7582 | 3.93e5 | inactive
SWIP (GeneID 32594) | 1 | – | – | 5032 | 3.70e5 | inactive
CG11905 (GeneID 39895) | 1 | – | – | 8951 | 2.90e5 | inactive
E(spl)m8-HLH (GeneID 43161) | 1 | – | – | 7207 | 3.67e5 | inactive
CG32121 (GeneID 317867) | 1 | – | – | 4971 | 2.81e5 | inactive
Alp7 (GeneID 37538) | 1 | – | – | 6904 | 4.70e5 | inactive
mRpL4 (GeneID 49425) | 1 | – | – | 1.66e5 | 1.45e6 | inactive
Ubc7 (GeneID 44054) | 1 | – | – | 6674 | 4.79e5 | inactive
lbm (GeneID 35623) | 1 | – | – | 6318 | 3.62e5 | inactive
CG11655 (GeneID 32472) | 1 | – | – | 5475 | 4.98e5 | inactive
hmw (GeneID 42207) | 1 | – | – | 9501 | 3.30e5 | inactive
pyd (GeneID 41062) | 1 | – | – | 6615 | 4.81e5 | inactive
pyd (GeneID 41062) | 2 | – | – | 7591 | 4.26e5 | inactive
pyd (GeneID 41062) | 3 | – | – | 6759 | 3.58e5 | inactive
pyd (GeneID 41062) | 4 | – | – | 6726 | 3.82e5 | inactive
pyd (GeneID 41062) | 5 | – | – | 8607 | 4.71e5 | inactive
pyd (GeneID 41062) | 6 | – | – | 5546 | 2.88e5 | inactive
pyd (GeneID 41062) | 7 | – | – | 6830 | 3.61e5 | inactive
pyd (GeneID 41062) | 8 | – | – | 9114 | 4.33e5 | inactive
pyd (GeneID 41062) | 9 | – | – | 3428 | 3.37e5 | inactive
CG8833 (GeneID 39535) | 1 | – | – | 10713 | 4.80e5 | inactive
CG9784 (GeneID 32629) | 1 | – | – | 5543 | 4.32e5 | inactive
mamo (GeneID 32353) | 1 | – | – | 5999 | 4.59e5 | inactive
Skp2 (GeneID 40548) | 1 | reporter ratio lowered past the hit cutoff | – | 6894 | 5.16e5 | active
Skp2 (GeneID 40548) | 2 | – | reporter ratio lowered past the hit cutoff | – | – | active
nwk (GeneID 39052) | 1 | – | – | 7134 | 4.23e5 | inactive
Nsun5 (GeneID 7354421) | 1 | – | – | 11399 | 5.09e5 | inactive
Hsp27 (GeneID 39078) | 1 | – | – | 6791 | 3.37e5 | inactive
Vha16-1 (GeneID 44307) | 1 | – | – | 5931 | 3.71e5 | inactive
VhaM9.7-c (GeneID 38503) | 1 | – | – | 7372 | 3.78e5 | inactive
fw (GeneID 32162) | 1 | – | – | 4871 | 3.90e5 | inactive
CG34149 (GeneID 4379861) | 1 | – | – | 7612 | 3.15e5 | inactive
CG13842 (GeneID 42685) | 1 | – | – | 6522 | 3.21e5 | inactive
snk (GeneID 41607) | 1 | – | – | 7543 | 4.50e5 | inactive
Uev1A (GeneID 38613) | 1 | – | – | 8130 | 4.48e5 | inactive
anne (GeneID 317815) | 1 | – | – | 8188 | 4.79e5 | inactive
Anp (GeneID 43595) | 1 | – | – | 7323 | 5.70e5 | inactive
Sin1 (GeneID 36604) | 1 | – | – | 7995 | 4.23e5 | inactive
Oda (GeneID 36307) | 1 | – | – | 6480 | 4.03e5 | inactive
Sr-CIII (GeneID 44382) | 1 | – | – | 8484 | 6.12e5 | inactive
retm (GeneID 33899) | 1 | – | – | 28828 | 4.03e5 | inactive
Oseg6 (GeneID 37245) | 1 | – | – | 6387 | 3.49e5 | inactive
CG15386 + CG42371 | 1 | – | – | 7310 | 4.59e5 | inactive
CG34231 (GeneID 5740811) | 1 | – | – | 6916 | 3.91e5 | inactive
CG11912 (GeneID 33205) | 1 | – | – | 11100 | 5.17e5 | inactive
Liprin-beta (GeneID 39524) | 1 | – | – | 5806 | 2.69e5 | inactive
Liprin-beta (GeneID 39524) | 2 | – | – | 3684 | 2.91e5 | inactive
Shark (GeneID 44353) | 1 | – | – | 8102 | 3.45e5 | inactive
Ccp84Ab (GeneID 40824) | 1 | – | – | 7191 | 3.45e5 | inactive
Vago (GeneID 32040) | 1 | – | – | 4863 | 3.29e5 | inactive
pst (GeneID 38818) | 1 | – | – | 7698 | 5.03e5 | inactive
CG10254 (GeneID 42793) | 1 | – | – | 10927 | 3.72e5 | inactive
CG4115 (GeneID 41499) | 1 | – | – | 6032 | 3.93e5 | inactive
Dph5 (GeneID 42663) | 1 | – | – | 8023 | 3.24e5 | inactive
CG32452 (GeneID 318035) | 1 | – | – | 6123 | 4.25e5 | inactive
CG32452 (GeneID 318035) | 2 | – | – | 8780 | 5.51e5 | inactive
CG14294 (GeneID 42262) | 1 | – | – | 7059 | 3.64e5 | inactive
Trf5 (GeneID 33454) | 1 | – | – | 8933 | 6.07e5 | inactive
Wdr33 (GeneID 40698) | 1 | – | – | 13213 | 5.68e5 | inactive
CG10472 (GeneID 38688) | 1 | – | – | 6835 | 5.03e5 | inactive
CG7378 (GeneID 32888) | 1 | – | – | 6075 | 3.82e5 | inactive
aspr (GeneID 33013) | 1 | – | – | 5502 | 3.91e5 | inactive
aspr (GeneID 33013) | 2 | – | reporter ratio raised past the hit cutoff | 6539 | 4.20e5 | inactive
CG42538 (GeneID 8673985) | 1 | – | – | 6235 | 3.91e5 | inactive
goe (GeneID 32660) | 1 | – | – | 6103 | 4.50e5 | inactive
CG5262 (GeneID 40258) | 1 | – | – | 8389 | 3.18e5 | inactive
CG17193 (GeneID 50044) | 1 | – | – | 7300 | 5.25e5 | inactive
slx1 (GeneID 40578) | 1 | – | – | 7400 | 3.74e5 | inactive
CG12945 (GeneID 41204) | 1 | – | – | 7288 | 3.99e5 | inactive
Gr58a (GeneID 117344) | 1 | – | – | 5444 | 3.27e5 | inactive
Hnf4 (GeneID 44544) | 1 | – | – | 4952 | 3.16e5 | inactive
Hnf4 (GeneID 44544) | 2 | – | – | 3707 | 3.46e5 | inactive

Sorted by “stable assay firefly, run 1 (luminescence)” (highest first): 10 of the entries above.
Gene | dsRNA no. | stable siRNA reporter change | miRNA reporter change | stable assay Renilla, run 1 (luminescence) | stable assay firefly, run 1 (luminescence) | Call
pyd (GeneID 41062) | 1 | – | – | 6615 | 4.81e5 | inactive
CG8833 (GeneID 39535) | 1 | – | – | 10713 | 4.80e5 | inactive
pyd (GeneID 41062) | 5 | – | – | 8607 | 4.71e5 | inactive
pyd (GeneID 41062) | 8 | – | – | 9114 | 4.33e5 | inactive
pyd (GeneID 41062) | 2 | – | – | 7591 | 4.26e5 | inactive
pyd (GeneID 41062) | 4 | – | – | 6726 | 3.82e5 | inactive
pyd (GeneID 41062) | 7 | – | – | 6830 | 3.61e5 | inactive
pyd (GeneID 41062) | 3 | – | – | 6759 | 3.58e5 | inactive
pyd (GeneID 41062) | 9 | – | – | 3428 | 3.37e5 | inactive
pyd (GeneID 41062) | 6 | – | – | 5546 | 2.88e5 | inactive
